Measured values as given in patent US9358239B2, “NiSOD-like compound and its derivatives for suppressing abnormal protein aggregation, recovering cell viability, increasing mature neuron number and neurite outgrowth length and protecting dopaminergic cells by reducing oxidative stress or reactive oxygen species in brain tissues” (National Taiwan Normal University, priority 2012, dated 2016).

System: HEK-293 cells
Assay: MTT viability assay, cytotoxicity against 293 cells
Conditions: read-out: IC50 (MTT viability), treatment for one day, interpolation method

O=C(CCCCCCC(=O)Nc1ccccc1)NO [SAHA, suberoylanilide hydroxamic acid, reference compound]
IC50: 377 µM
